# Measured values: patent US20210186934A1, “COMPOSITIONS AND USES THEREOF” (LIVERPOOL JOHN MOORES UNIVERSITY, priority 2018, published 2021)
# Some entries share one result that the patent states for a list of compounds. At least one compound was matched to its structure with a doubt left.
# Tested on: miR-184
# Test: Inhibition of SOCE: effect on Ca2+-dependent miR-184 expression in HPEK
# Format: cell-based, human
# Details: 1.5 mM Ca2+ 5 d, 1 μM Gd3+, BTP2 or CsA, 100 nM siRNA
structure (smiles),measurement,value
Cc1nnsc1C(=O)Nc1ccc(-n2nc(C(F)(F)F)cc2C(F)(F)F)cc1 [BTP2],reduction of Ca2+-induced miR-184 expression,≥ 70%
